Results from PubChem BioAssay AID504444 (National Center for Advancing Translational Sciences (NCATS), 2011).
The campaign covered roughly 360,000 compounds. About 7,500 (2.1%) were called active. The inconclusive results got no clear call from the source; some entries with a clear call stand among them for comparison. Calls follow the shape of the dose curve; as a rule, active = well fitted inhibition curve with a large enough effect; inconclusive = small, poorly fitted or top-dose-only effect, or effect the other way; inactive = flat fitted curve, though single readings scatter. A potency beside an inconclusive call is a rough fit, not a confirmed value.

Assay: Nrf2 qHTS screen for inhibitors; also: nearly all actives have a fitted effect of over 60% in size
Settings: A549 ARE-Fluc reporter, luciferase luminescence, 18-24 h; series mostly up to 46 µM
Outline: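 Reporter: ARE-Fluc in A549. Exposure: 18-24 h, 37 °C, 5% CO2, 5% FBS OPTI-MEM. Readouts: fluorescent cytotoxicity (CellTiter-Fluor), then luminescent Nrf2 signal after BugLite.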
Potency is read from the fitted curve at half-maximal effect.

Row | Compound | Potency
1 | CC(C)c1nnc(NC(=O)c2cc3ccccc3o2)s1 | inconclusive: 20.6 µM [activator, partial curve]
2 | O=S(=O)(c1cccc2cccnc12)N1CCN(Cc2ccc3c(c2)OCO3)CC1 | inconclusive: 6.51 µM [activator, single point]
3 | CCCc1[nH]n(-c2nc3ccccc3s2)c(=O)c1C=NCCCOC | inactive
4 | CN(C)c1ccc(/C=C(/C(=O)c2ccc(Cl)cc2Cl)n2cncn2)cc1 | inactive
5 | COc1ccccc1C1c2c(ncn(-c3ccccc3)c2=N)Oc2ccc3ccccc3c21 (centres undefined) | active: 23.1 µM
6 | Oc1cccc(-c2nc3c4c(ncn3n2)-c2ccccc2CC42CCCC2)c1 | active: 23.1 µM
7 | CC(=O)c1ccc(Nc2cc(C)nc3ccccc23)cc1 | inconclusive: 8.2 µM [activator, partial curve, poor fit]
8 | CC1(c2nnc(-c3ccccc3)o2)CC(c2ccc([N+](=O)[O-])cc2)=NO1 (centres undefined) | inconclusive: 29.1 µM [falling, single point]
9 | CCCC(=O)Nc1nnc(S(=O)(=O)N2CCCCCC2)s1 | inconclusive: 5.17 µM [activator, partial curve]
10 | O=C1CCCc2cc3c(cc21)CC1(C3)Cc2cc3c(cc2C1)C(=O)CCC3 | inconclusive: 29.1 µM [falling, single point]
11 | Cc1ccc(C2=NS(=O)(=O)N(C)C(C(=O)Nc3ccc(F)cc3F)=C2)cc1 | inconclusive: 29.1 µM [falling, single point]
12 | O=S(=O)(c1ccccc1)c1nc(-c2ccccc2Cl)oc1NCCCN1CCOCC1 | inconclusive: 25.9 µM [falling, single point]
13 | COc1cccc(CN2CCN(c3cccc(C(F)(F)F)c3)CC2)c1OC | inconclusive: 29.1 µM [falling, single point]
14 | COc1cc(CNS(=O)(=O)c2ccc3c(c2)CC(C)N3C(=O)C2CCC2)cc(OC)c1OC (centres undefined) | inconclusive: 4.61 µM [falling, partial curve, poor fit]
15 | CC1=C(c2ccc(F)cc2)S(=O)(=O)N=C1N1CCC(C(=O)NCCc2ccccc2C)CC1 | inconclusive: 0.326 µM [activator, full curve, poor fit]
16 | CCN1CCN(CCNC(=O)CCCCCn2c(=O)[nH]c3cc(C(=O)OC)ccc3c2=O)CC1 | inactive
17 | Cc1nc2cc(-c3cccc(F)c3)nn2c(C)c1CCC(=O)N1CCN(c2ccccn2)CC1 | inconclusive: 4.11 µM [falling, full curve]
18 | O=C(NCCN1CCOCC1)c1cc(-c2ccc(Cl)cc2)on1 | inactive
19 | O=C(CCn1cccc1)Nc1ccc(F)cc1 | inconclusive: 13 µM [falling, partial curve, poor fit]
20 | Cc1cc(C(=O)CN2C(=O)NC(CC(C)C)C2=O)c(C)n1C1CC1 (centres undefined) | inconclusive: 9.2 µM [activator, partial curve]
21 | O=C(CNC(=O)OCc1ccccc1)OC(c1ccccc1)c1ccccc1 | inconclusive: 18.4 µM [falling, partial curve, poor fit]
22 | CN(c1ccc(C(=O)Nc2cccc([N+](=O)[O-])c2)cc1)S(C)(=O)=O | inconclusive: 20.6 µM [falling, single point]
23 | O=C(/C=C/c1ccccc1)NCCOc1ccccc1 | inconclusive: 16.4 µM [activator, partial curve]

Row | Compound | Potency
24 | Cc1nc(CNC(=O)CC2C(=O)NCCN2Cc2cccc(Oc3ccccc3)c2)cs1 (centres undefined) | inactive
25 | COn1c(-c2ccc(Cl)cc2)nc2ncccc21 | inconclusive: 13 µM [activator, partial curve]
26 | Fc1ccc(Nc2ncnc3onc(-c4ccc(Cl)cc4)c23)cc1Cl | inconclusive: 29.1 µM [falling, single point]
27 | O=C(C1CCCN(S(=O)(=O)c2ccc(Br)s2)C1)N1CCN(c2ccccc2F)CC1 (centres undefined) | inactive
28 | CCOc1ccc(CCNC(=O)c2ccc3c(c2)N(Cc2ccc(C)cc2)CCS3)cc1 | inactive
29 | COc1ccc(C)cc1NC(=O)NC(C)c1c(-n2cccc2)sc(C)c1C (centres undefined) | inconclusive: 29.1 µM [falling, single point]
30 | CCN(CC)CCCNc1sc(S(=O)(=O)c2ccccc2)nc1S(=O)(=O)c1ccc(Cl)cc1 | inconclusive: 29.1 µM [activator, single point]
31 | O=C(Nc1ccccc1)c1ccc(S(=O)(=O)NCC2CCCO2)cc1 (centres undefined) | inactive
32 | CCN(C(=O)c1sc2nc3n(c(=O)c2c1C)CCCCC3)c1ccc(OC)cc1 | inactive
33 | COc1ccc(C2=NOC(Cn3nc(-c4ccccc4)cc3C(=O)NCc3ccco3)C2)cc1 (centres undefined) | inconclusive: 29.1 µM [activator, single point]
34 | Cc1ccc2[nH]c(=O)cc(C(=O)OCC(=O)c3ccccc3)c2c1 | inactive
35 | NC(=O)COC(=O)c1ccccc1Nc1ccc(SC(F)F)cc1 | inconclusive: 25.9 µM [activator, single point]
36 | Cn1/c(=N/NC(=O)c2ccccc2Br)sc2ccccc21 | inconclusive: 20.6 µM [activator, partial curve]
37 | COc1cc(NS(=O)(=O)N2CCCC2)cc(OC)c1OC | inconclusive: 20.6 µM [falling, partial curve, poor fit]
38 | CCc1ccc2nc(NC(=O)c3ccc(N4C(=O)CCC4=O)cc3)sc2c1 | inconclusive: 10.3 µM [activator, partial curve]
39 | Cc1ccc(C)n1-c1ccc(C(=O)NN)cc1 | inactive
40 | COc1ccc(CNC(=O)C[C@H]2C[C@H](C(=O)N3CCOCC3)[C@@]3(C)c4[nH]c5ccc(Cl)cc5c4CCN3C2=O)cc1OC | inactive
41 | Cc1ccc(S(=O)(=O)/N=C(\Nc2cc(C)on2)c2ccc(Cl)cc2)cc1 | inconclusive: 4.61 µM [activator, full curve]
42 | C(=NOCc1ccccc1)c1ccncc1 | inconclusive: 20.6 µM [activator, single point]
43 | COc1ccc(NC(=O)c2cc3c(s2)CCC(C)C3)cc1S(=O)(=O)N1CCOCC1 (centres undefined) | active: 18.4 µM
44 | Cc1ccc(C)c2[nH]c(=O)c(CCNC(=O)c3cc4ccccc4o3)cc12 | inconclusive: 23.1 µM [falling, single point]
45 | CC1CC(C)CN(C(=O)C(C)N2CCN(S(=O)(=O)c3ccc(Br)s3)CC2)C1 (centres undefined) | inconclusive: 29.1 µM [falling, single point]
46 | COc1ccc(/C(N)=N/OC(=O)COc2ccccc2Cl)cc1 | inconclusive: 9.2 µM [activator, partial curve]

Sorted by SMILES length (falling): 3 of the compounds above
Row | Compound | Potency
43 | COc1ccc(NC(=O)c2cc3c(s2)CCC(C)C3)cc1S(=O)(=O)N1CCOCC1 (centres undefined) | active: 18.4 µM
24 | Cc1nc(CNC(=O)CC2C(=O)NCCN2Cc2cccc(Oc3ccccc3)c2)cs1 (centres undefined) | inactive
44 | Cc1ccc(C)c2[nH]c(=O)c(CCNC(=O)c3cc4ccccc4o3)cc12 | inconclusive: 23.1 µM [falling, single point]

Next part:

Row | Compound | Potency
47 | COc1ccc(-n2nnc3c(=O)n(CC(=O)Nc4cc(C)on4)cnc32)cc1 | inconclusive: 4.11 µM [activator, full curve, poor fit]
48 | CCn1ccc(C(=O)Nc2ccccc2Cl)n1 | inconclusive: 8.2 µM [activator, partial curve]
49 | O=c1[nH]c(CN2CCN(S(=O)(=O)/C=C/c3ccccc3)CC2)nc2cc(Cl)ccc12 | active: 16.4 µM
50 | CCNC(=S)N/N=C(\C)c1cc2ccccc2o1 | inactive
51 | CCOc1ccc(NC(=O)c2ccc(F)cc2F)cc1 | inconclusive: 29.1 µM [activator, single point]
52 | COc1ccc(CCNC(=S)N2CCC(C(=O)c3ccc(F)cc3)CC2)cc1OC | active: 16.4 µM
53 | CCN(CC)S(=O)(=O)c1cccc(NC(=O)CNc2cccc(S(=O)(=O)N3CCCC3)c2)c1 | active: 25.9 µM
54 | Nc1nnnn1/N=C/c1cccc(OCc2ccccc2Cl)c1 | inconclusive: 20.6 µM [falling, single point]
55 | COC(=O)CSC1=NS(=O)(=O)c2ccccc21 | inconclusive: 18.4 µM [falling, partial curve, poor fit]
56 | Cc1onc(-c2ccccc2)c1C(=O)Nc1ccc(C(=O)N2CCCCC2)cc1 | inconclusive: 29.1 µM [activator, single point]
57 | C/C(=N\OC(=O)Nc1ccccc1)c1ccc(C)cc1 | inconclusive: 16.4 µM [activator, partial curve]
58 | CC(C)CCNC(=O)COc1ccc2c3c(c(=O)oc2c1)CCC3 | inactive
59 | O=C1OC(c2ccccc2)(c2ccccc2)c2ccccc21 | inconclusive: 29.1 µM [falling, single point]
60 | O=C(O)COc1ccc(C(=O)Cc2ccc3c(c2)OCCCO3)c(O)c1 | inconclusive: 18.4 µM [falling, single point]
61 | O=C(CSc1ccccn1)Nc1ccc2c(c1)CCC2 | inconclusive: 20.6 µM [activator, partial curve]
62 | CCOCCn1c(N2CCN(c3ccccc3)CC2)nc2c1c(=O)n(C)c(=O)n2C | inactive
63 | Cc1ccccc1C(=O)N1CCN(c2ccccn2)CC1 | inactive
64 | COc1ccc(CCNC(=S)NC(=O)/C=C/c2ccc(C)cc2)cc1OC | inconclusive: 29.1 µM [falling, single point]
65 | COC(=O)c1cccc(NC(=O)COc2cccc([N+](=O)[O-])c2)c1 | inconclusive: 14.6 µM [falling, partial curve, poor fit]
66 | Cc1ccc(-n2nc3c(c2NC(=O)c2ccc4c(c2)OCO4)CS(=O)(=O)C3)c(C)c1 | inconclusive: 20.6 µM [activator, partial curve, poor fit]
67 | Cc1nnc(NC(=O)CSc2nc(C(C)C)nc3ccccc23)s1 | inactive
68 | Cc1ccc(NC(=O)CSc2nnc(C3CC3)n2C)cc1S(=O)(=O)N1CCCCC1 | active: 14.6 µM
69 | CC(=O)N1c2ccc(S(=O)(=O)N3CCC(C(=O)N4CCN(c5ccccc5F)CC4)CC3)cc2CC1C (centres undefined) | inconclusive: 23.1 µM [falling, single point]

Reprinted at random: 3 compounds from above
Row | Compound | Potency
34 | Cc1ccc2[nH]c(=O)cc(C(=O)OCC(=O)c3ccccc3)c2c1 | inactive
61 | O=C(CSc1ccccn1)Nc1ccc2c(c1)CCC2 | inconclusive: 20.6 µM [activator, partial curve]
68 | Cc1ccc(NC(=O)CSc2nnc(C3CC3)n2C)cc1S(=O)(=O)N1CCCCC1 | active: 14.6 µM
